These results are taken from publication PMC7256200, “Identifying a Molecular Mechanism That Imparts Species-Specific Toxicity to YoeB Toxins” (Frontiers in Microbiology, 2020).

Results are given in words; binding and its absence hold for the method and conditions named. Where a sequence is shown, tags or fusion partners need not be part of it.

This experiment has as its target His-dihydrofolate reductase. As to the kind of experiment: BLI; both purified. On the technique in general: BLI is a label-free optical method that tracks binding on a fibre tip over time.

B1: AtYoeB toxin (Atu2017) from Agrobacterium tumefaciens, GST-His tag removed (natural protein)
chain: MKLVWTLSSWDDYEFWQRTDARMVEKINDLIRNAKRTPFAGLGKPEPLKGDMAGYWSRRITAEHRFVYRVSGSGSEQRLEVIQCRFHYQ
notes: source: E. coli BL21 (DE3), purified (NiNTA, HRV3c PreScission cleavage, Superdex 75); not shown: GST, C-terminal, cleaved
In the case of B1, the binding entry is “no binding”.
